Source: patent US11654149B2, “Calmodulin inhibitors for the treatment of ribosomal disorders and ribosomapathies” (CHILDREN'S MEDICAL CENTER CORPORATION, priority 2012, dated 2023)
At least one compound was matched to its structure with a doubt left.

Tested on: rps29−/− zebrafish embryos
Assay: flk1 whole-mount in situ hybridization (intersegmental vessel staining) in rps29−/− embryo chemical screen
Format: in vivo
Settings: rps29−/− embryos treated from bud to 23 hpf, flk1 ISH at 24 hpf
Experimental: Fish were maintained under approved laboratory conditions.
Whole-mount in situ hybridization (ISH) was performed as described (Thisse and Thisse, 2008). Antisense probes were synthesized from digested plasmid. O-Dianisidine was performed as described previously (Paffett-Lugassy and Zon, 2005).

COCCOC(=O)C1=C(C)NC(C)=C(C(=O)OC(C)C)C1c1cccc([N+](=O)[O-])c1 (stereo not shown) [Nimodipine]
rescue of flk1 expression / vasculature defect: rescued the vasculature defect
